This is an account of results in paper PMC5014153.

Amino acid sequences for entries named in this document (tags omitted). A change or cut given only in a name is not applied to a line headed by its entry.
UniProt Q9C5T4: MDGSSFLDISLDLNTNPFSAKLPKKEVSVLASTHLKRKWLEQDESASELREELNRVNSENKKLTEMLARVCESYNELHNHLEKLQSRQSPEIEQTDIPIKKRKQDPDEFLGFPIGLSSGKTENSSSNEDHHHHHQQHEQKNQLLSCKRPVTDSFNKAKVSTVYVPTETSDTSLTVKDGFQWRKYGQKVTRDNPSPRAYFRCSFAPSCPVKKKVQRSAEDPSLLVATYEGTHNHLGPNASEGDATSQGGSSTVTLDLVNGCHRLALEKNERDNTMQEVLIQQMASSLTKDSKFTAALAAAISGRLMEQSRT

The comparison behind a weaker result is the experiment's own reference, which may not be listed here. For some assays here: Tags and fusion partners may be left off the protein sequences shown.

In series [1] the target is T1, 6xHis-WRKY40 (UniProt Q9SAH7).
T1 sequence (looked up): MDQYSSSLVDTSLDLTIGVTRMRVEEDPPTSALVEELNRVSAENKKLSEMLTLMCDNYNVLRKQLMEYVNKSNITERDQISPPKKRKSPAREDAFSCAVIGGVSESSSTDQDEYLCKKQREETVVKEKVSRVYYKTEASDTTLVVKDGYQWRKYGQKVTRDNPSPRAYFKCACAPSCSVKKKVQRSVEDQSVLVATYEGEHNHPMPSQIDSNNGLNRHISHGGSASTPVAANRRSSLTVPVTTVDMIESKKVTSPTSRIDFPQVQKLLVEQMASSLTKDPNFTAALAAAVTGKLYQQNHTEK
The series is described as follows: EMSA. The settings on record: 25 mM Hepes pH 8.0, 40 mM KCl, 5 mM MgCl2, 1 mM DTT, 1 mM EDTA, 8% glycerol, 50 ng protein, 20 fmol probe, 30 min at 28 C, native PAGE, recombinant protein, residues 1-302, protein details: N-terminal Trx, HRV 3C site (pET48b), label: 5' biotin on each strand.

The target of series [2] is 6xHis-WRKY18 (UniProt Q9C5T4). In words: EMSA. The settings on record: 25 mM Hepes pH 8.0, 40 mM KCl, 5 mM MgCl2, 1 mM DTT, 1 mM EDTA, 8% glycerol, 50 ng protein, 20 fmol probe, 30 min at 28 C, native PAGE, recombinant protein, residues 1-310, protein details: N-terminal Trx, HRV 3C site (pET48b), label: 5' biotin on each strand. Background: A gel shift assay detects complexes by their altered migration in electrophoresis.

As to “TTGATGTTACTCGTCTAGTTAAACTTAAATTGCAAGATATTGTATTATTTTACAAAAACCAAAATTTGACTGGCTTGGCT (double strand) [ProCRK5-1 mW2/W3]”, the binding result in series [1] and in series [2] was “binds more weakly” throughout.
